The nature of data set [1]: Surfactant screening: kinetic coefficient of friction (CoF) of Lens-2 after overnight surfactant soak and overnight PBS wash. Particulars: soaked overnight, then 4 mL PBS overnight at room temperature, average n=3.
A short description of data set [2]: Surfactant screening: kinetic coefficient of friction (CoF) of Lens-1 after overnight surfactant soak and overnight PBS wash. The settings on record: soaked overnight, then 4 mL PBS overnight at room temperature, average n=3.

For the compound `CCCCCCCCCC[N+](C)(C)CCCS(=O)(=O)[O-]` [Zwittergent 3-10], the “Lens-2 CoF” value in data set [1] (surfactant 0.1 wt. % in PBS) came to 1.08. Besides, the “Lens-1 CoF” value in data set [2] (surfactant 0.1 wt. % in PBS) is 0.98.

Turning to Coco betaine, the “Lens-2 CoF” value in data set [1] (surfactant 0.5 wt. % in PBS) worked out at 0.78. In data set [2] (surfactant 0.5 wt. % in PBS), the “Lens-1 CoF” value worked out at 0.29.

For PEG-7 glyceryl cocoate, the “Lens-2 CoF” value in data set [1] (surfactant 0.5 wt. % in PBS) is recorded as 0.75. Further, the “Lens-1 CoF” value in data set [2] (surfactant 0.5 wt. % in PBS) came to 0.09.

On to tyloxapol, for which the “Lens-2 CoF” value in data set [1] (surfactant 0.1 wt. % in PBS) is reported as 0.23. In data set [2] (surfactant 0.1 wt. % in PBS), the “Lens-1 CoF” value is given as 0.09.
